One test has as its target T1, calpain 1 (Homo sapiens, UniProt P07384).
T1 construct: purchased BioVision
T1 sequence (P07384 1-714): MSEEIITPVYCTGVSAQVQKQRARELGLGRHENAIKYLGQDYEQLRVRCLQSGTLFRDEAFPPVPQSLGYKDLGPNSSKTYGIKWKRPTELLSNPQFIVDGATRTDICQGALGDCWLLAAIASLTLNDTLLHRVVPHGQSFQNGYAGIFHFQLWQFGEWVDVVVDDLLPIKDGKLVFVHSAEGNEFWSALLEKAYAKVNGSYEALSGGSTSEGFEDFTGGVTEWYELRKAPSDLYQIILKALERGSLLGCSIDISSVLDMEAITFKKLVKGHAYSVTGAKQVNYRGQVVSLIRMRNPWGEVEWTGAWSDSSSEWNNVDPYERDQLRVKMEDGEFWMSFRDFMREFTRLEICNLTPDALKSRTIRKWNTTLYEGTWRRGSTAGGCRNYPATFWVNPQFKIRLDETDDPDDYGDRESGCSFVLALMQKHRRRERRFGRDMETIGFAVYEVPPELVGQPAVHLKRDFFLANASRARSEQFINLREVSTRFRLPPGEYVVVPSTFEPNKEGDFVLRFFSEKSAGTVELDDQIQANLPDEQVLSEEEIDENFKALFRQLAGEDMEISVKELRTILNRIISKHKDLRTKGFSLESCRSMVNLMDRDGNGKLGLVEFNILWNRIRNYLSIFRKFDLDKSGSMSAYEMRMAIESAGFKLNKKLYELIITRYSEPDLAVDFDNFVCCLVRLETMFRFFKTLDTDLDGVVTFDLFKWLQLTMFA
T1 sequence (P04632 1-268 partner): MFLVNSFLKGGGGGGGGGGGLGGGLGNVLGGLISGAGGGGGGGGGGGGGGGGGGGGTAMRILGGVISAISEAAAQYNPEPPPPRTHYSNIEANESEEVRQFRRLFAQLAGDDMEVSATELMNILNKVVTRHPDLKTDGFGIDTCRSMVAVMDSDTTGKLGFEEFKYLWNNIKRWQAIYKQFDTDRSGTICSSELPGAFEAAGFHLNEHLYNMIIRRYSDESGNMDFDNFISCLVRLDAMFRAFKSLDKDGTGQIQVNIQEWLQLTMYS
Description: Host protease FRET test, calpain. It counts as biochemical. As to conditions: 33 μM drug, N/I = no FRET inhibition.

Chains of the proteins cited; added tags and fusions are not shown. Residues count along the entry.
UniProt P15917, 34-809 limits assumed: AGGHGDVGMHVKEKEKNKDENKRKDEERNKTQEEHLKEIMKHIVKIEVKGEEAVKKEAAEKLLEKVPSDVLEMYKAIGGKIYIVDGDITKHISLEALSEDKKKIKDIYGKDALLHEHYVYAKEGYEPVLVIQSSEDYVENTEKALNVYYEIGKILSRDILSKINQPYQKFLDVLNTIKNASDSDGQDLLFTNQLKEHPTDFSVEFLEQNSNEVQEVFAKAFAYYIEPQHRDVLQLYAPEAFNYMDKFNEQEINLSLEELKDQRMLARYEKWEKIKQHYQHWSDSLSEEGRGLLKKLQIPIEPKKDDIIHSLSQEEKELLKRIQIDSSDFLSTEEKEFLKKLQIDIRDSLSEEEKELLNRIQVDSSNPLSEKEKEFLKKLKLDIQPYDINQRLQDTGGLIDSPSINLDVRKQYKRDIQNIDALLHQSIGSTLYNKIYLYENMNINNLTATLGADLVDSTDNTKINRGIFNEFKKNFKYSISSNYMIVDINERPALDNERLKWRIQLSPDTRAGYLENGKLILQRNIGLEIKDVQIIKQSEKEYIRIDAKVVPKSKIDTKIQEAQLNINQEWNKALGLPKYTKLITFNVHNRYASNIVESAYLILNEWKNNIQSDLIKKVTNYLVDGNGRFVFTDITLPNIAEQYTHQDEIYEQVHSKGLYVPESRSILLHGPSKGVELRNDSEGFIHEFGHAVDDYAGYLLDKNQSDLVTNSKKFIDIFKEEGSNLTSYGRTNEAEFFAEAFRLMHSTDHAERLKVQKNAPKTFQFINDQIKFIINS
UniProt P09958, 108-794: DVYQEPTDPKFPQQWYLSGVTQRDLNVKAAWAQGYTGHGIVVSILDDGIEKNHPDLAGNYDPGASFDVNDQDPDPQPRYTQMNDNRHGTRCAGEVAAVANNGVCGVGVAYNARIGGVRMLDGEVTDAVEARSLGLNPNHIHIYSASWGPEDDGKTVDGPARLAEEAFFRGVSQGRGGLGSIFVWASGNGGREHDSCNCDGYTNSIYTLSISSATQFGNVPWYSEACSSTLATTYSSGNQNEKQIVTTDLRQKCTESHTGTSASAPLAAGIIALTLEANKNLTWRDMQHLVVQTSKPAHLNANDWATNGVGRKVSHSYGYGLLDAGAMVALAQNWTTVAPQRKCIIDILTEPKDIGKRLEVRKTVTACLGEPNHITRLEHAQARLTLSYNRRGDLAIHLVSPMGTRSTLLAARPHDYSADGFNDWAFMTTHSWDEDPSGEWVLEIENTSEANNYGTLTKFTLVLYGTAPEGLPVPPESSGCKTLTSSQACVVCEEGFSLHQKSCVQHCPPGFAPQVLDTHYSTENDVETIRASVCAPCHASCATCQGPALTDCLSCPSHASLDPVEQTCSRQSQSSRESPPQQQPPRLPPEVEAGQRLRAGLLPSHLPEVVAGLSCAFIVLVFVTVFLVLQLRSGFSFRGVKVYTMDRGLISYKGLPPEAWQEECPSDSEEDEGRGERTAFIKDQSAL

For the next test, the target named is T2, caspase-3 (Homo sapiens, UniProt P42574).
T2 construct: purchased BioVision
T2 sequence (P42574 29-277): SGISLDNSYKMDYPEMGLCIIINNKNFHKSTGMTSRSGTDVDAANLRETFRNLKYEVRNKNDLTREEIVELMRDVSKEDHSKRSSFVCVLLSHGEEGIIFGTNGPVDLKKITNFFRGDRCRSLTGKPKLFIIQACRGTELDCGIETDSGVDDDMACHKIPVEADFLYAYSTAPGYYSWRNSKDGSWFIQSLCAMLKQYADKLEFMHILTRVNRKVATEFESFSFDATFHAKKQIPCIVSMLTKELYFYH
Description: Host protease FRET test, caspase-3. It counts as biochemical. As to conditions: 33 μM drug, N/I = no FRET inhibition, read-out: Percent Inhibition with 33 μM of drug, Casp 3.

For the next test, the target named is anthrax LF (Bacillus anthracis, UniProt P15917). Briefly: biochemical.
A further test deals with T3, caspase-1 (Homo sapiens, UniProt P29466).
T3 construct: purchased BioVision
T3 sequence (P29466 120-404): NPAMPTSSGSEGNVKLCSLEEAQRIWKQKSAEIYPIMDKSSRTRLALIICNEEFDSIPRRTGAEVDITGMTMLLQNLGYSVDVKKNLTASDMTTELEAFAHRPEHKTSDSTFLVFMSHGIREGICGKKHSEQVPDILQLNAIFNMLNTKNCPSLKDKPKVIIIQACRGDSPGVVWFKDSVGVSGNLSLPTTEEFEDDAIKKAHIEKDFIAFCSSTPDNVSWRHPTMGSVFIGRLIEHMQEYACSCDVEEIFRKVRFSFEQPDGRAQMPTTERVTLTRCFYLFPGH
Briefly: Host protease FRET test, caspase-1. It counts as biochemical. As to conditions: 33 μM drug, N/I = no FRET inhibition, read-out: Percent Inhibition with 33 μM of drug, Casp 1.

Another test deals with cathepsin B (Homo sapiens, UniProt P07858). Briefly: Host protease FRET test, cathepsin B. It counts as biochemical. As to conditions: 33 μM drug, N/I = no FRET inhibition.
The target in the next test is T4, human furin (Homo sapiens, UniProt P09958).
T4 construct: purchased New England Biolabs
Description: Host protease FRET test, furin. As to conditions: 33 μM drug, N/I = no FRET inhibition. It counts as biochemical.

By inhibition is commonly meant the drop in the measured response relative to a control, in per cent. What is called IC50 is the point on the concentration scale where inhibition reaches its midpoint. A low value points to greater potency in that assay.

Consider `CCCCCCCCCCCCCCCC[n+]1ccccc1` [Cetylpyridinium bromide], for which the “Percent Inhibition with 33 μM of drug, Calpain” value at calpain 1 was “N/I”. For the same molecule, the inhibition at 33 µM was found to be 84 ± 2.7% at caspase-3; 107 ± 1.07% on anthrax LF (read-out: Percent Inhibition with 33 μM of drug, LF); 14 ± 6.59% on caspase-1. Further, the 50% inhibitory concentration (IC50) at anthrax LF is 360 ± 90 nM. The “Percent Inhibition with 33 μM of drug, Cath B” value on cathepsin B is “N/I”. Besides, at human furin, the “Percent Inhibition with 33 μM of drug, Furin” value was “N/I*”.

Values taken from publication PMC5050486 (Scientific Reports, 2016).
